Data published in publication PMC9688267.
Results are given in words; binding and its absence hold for the method and conditions named. Binding seen in cells or lysates may run through a third protein. These calls come from enrichment with a bait or labelling near it, and not all partners need be listed.

The chains behind the UniProt entries cited, without tags or fusion partners.
UniProt O35449: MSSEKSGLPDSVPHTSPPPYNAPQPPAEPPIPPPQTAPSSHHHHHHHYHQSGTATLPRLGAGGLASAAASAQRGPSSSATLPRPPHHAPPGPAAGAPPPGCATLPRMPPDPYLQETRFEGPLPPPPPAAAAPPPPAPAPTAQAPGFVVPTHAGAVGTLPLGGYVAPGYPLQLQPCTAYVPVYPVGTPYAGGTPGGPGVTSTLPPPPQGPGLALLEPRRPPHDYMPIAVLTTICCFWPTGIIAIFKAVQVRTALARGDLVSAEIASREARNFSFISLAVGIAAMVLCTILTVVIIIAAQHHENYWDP
UniProt O88602: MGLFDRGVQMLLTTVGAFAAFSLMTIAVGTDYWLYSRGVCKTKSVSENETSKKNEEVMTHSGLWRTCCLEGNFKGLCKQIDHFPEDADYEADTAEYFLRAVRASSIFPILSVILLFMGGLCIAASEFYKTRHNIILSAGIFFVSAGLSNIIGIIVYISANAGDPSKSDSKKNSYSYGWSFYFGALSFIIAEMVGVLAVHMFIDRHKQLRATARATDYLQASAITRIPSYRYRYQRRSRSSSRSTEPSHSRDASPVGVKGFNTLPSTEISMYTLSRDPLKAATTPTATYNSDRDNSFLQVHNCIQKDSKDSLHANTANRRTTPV

B1: Cornichon homolog 2 (protein, UniProt O35089 1-160)
chain: MAFTFAAFCYMLTLVLCASLIFFVIWHIIAFDELRTDFKNPIDQGNPARARERLKNIERICCLLRKLVVPEYSIHGLFCLMFLCAAEWVTLGLNIPLLFYHLWRYFHRPADGSEVMYDAVSIMNADILNYCQKESWCKLAFYLLSFFYYLYSMVYTLVSF
B2: Cornichon homolog 3 (protein, UniProt Q6ZWS4 1-160)
chain: MAFTFAAFCYMLSLVLCAALIFFAIWHIIAFDELRTDFKSPIDQCNPVHARERLRNIERICFLLRKLVLPEYSIHSLFCIMFLCAQEWLTLGLNVPLLFYHFWRYFHCPADSSELAYDPPVVMNADTLSYCQKEAWCKLAFYLLSFFYYLYCMIYTLVSS
B3: Transmembrane AMPAR regulatory protein gamma-8 (protein, UniProt Q8VHW2 1-423)
chain: MESLKRWNEERGLWCEKGVQVLLTTIGAFSAFGLMTIAISTDYWLYTRALICNTTNLTAGDDGPPHRGGSGSSEKKDPGGLTHSGLWRICCLEGLKRGVCVKINHFPEDTDYDHDSAEYLLRVVRASSIFPILSAILLLLGGVCVAASRVYKSKRNIILGAGILFVAAGLSNIIGVIVYISANAGEPGPKRDEEKKNHYSYGWSFYFGGLSFILAEVIGVLAVNIYIERSREAHCQSRSDLLKAGGGAGGSGGSGPSAILRLPSYRFRYRRRSRSSSRGSSEASPSRDASPGGPGGPGFASTDISMYTLSRDPSKGSVAAGLASAGGGGSGAGVGAYGGAAGAAGGGGAGSERDRGSSAGFLTLHNAFPKEAASGVTVTVTGPPAAPAPAPAPPAPAAPAPGTLSKEAAASNTNTLNRKTTPV
B4: Ras-related protein Rap-2b (protein, UniProt P61226 1-183)
chain: MREYKVVVLGSGGVGKSALTVQFVTGSFIEKYDPTIEDFYRKEIEVDSSPSVLEILDTAGTEQFASMRDLYIKNGQGFILVYSLVNQQSFQDIKPMRDQIIRVKRYERVPMILVGNKVDLEGEREVSYGEGKALAEEWSCPFMETSAKNKASVDELFAEIVRQMNYAAQPNGDEGCCSACVIL

Key:
[1] = molecular target: Synapse differentiation-induced protein 4 (mouse (endogenous in hippocampus)) (UniProt O35449); assay: affinity purification with mass spectrometry; IP with anti-TARP-γ2/(4)/8 or anti-SynDIG4 from wildtype mouse hippocampus extract; antibody epitope blocking and empty bead controls; n = 2 per antibody
[2] = molecular target: T1, Transmembrane AMPAR regulatory protein gamma-8 (mouse (endogenous in hippocampus)) (UniProt Q8VHW2); assay: as above
T1 sequence: B3 chain

[3] = molecular target: Synapse differentiation-induced protein 4 (mouse (endogenous in hippocampus)) (UniProt O35449); assay: affinity purification with mass spectrometry + native gel or EMSA; IP-BN-PAGE-MS: IP with anti-TARP-γ2/8 or anti-SynDIG4 from 30 mg hippocampus P2+M, elution with epitope peptide, 3–12% Blue Native PAGE at 4 °C, 70 slices analysed by MS; co-migration above the 720 kDa marker

Molecule	binding [1]	binding [2]	binding [3]
Transmembrane AMPAR regulatory protein gamma-2 (from UniProt O88602 1-323)	binds		
B1		binds	
B2	binds	binds	
B3	binds		binds
B4	binds		
